According to publication PMC10017709, “Structural basis of selective cannabinoid CB2 receptor activation” (Nature Communications, 2023):
“And” between values parts separate entries of the source, which are not always exact repeats. Equal entries are not always repeated. The source gives many values for each of these; only a part stands here.

Sequences of proteins named here, by UniProt entry; tags and fusion partners are left off.
UniProt P34972, whole entry S285A: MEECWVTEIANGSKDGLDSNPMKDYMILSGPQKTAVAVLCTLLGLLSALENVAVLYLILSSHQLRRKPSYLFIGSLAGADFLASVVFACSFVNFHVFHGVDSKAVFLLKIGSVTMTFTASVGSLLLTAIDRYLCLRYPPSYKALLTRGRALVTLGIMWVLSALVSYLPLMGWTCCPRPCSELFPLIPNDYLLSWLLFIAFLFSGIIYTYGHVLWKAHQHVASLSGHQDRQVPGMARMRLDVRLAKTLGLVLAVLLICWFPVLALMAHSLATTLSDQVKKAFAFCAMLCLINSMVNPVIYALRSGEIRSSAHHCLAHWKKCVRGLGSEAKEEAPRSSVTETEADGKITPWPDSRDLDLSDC
UniProt P34972, whole entry: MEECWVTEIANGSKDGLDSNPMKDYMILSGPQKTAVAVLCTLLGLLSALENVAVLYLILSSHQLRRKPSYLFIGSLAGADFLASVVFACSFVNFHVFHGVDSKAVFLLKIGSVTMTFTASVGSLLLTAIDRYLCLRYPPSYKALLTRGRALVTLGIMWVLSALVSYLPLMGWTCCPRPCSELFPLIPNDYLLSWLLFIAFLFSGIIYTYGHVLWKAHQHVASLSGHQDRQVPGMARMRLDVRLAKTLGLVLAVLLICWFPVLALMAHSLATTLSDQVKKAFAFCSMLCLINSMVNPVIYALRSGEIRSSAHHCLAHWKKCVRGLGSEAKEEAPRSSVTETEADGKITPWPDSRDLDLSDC
UniProt P34972, whole entry H95A: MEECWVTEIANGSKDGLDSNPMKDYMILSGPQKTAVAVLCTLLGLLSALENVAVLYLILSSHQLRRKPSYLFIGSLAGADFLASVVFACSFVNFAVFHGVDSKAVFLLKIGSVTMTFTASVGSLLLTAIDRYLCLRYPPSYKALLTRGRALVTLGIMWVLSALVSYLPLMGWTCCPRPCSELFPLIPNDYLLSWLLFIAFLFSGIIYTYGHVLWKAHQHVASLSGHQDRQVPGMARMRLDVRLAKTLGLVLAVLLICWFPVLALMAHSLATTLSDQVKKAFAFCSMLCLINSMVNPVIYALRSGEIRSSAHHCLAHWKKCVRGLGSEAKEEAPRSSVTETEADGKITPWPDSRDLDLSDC

Columns and labels:
Format in all cases: biochemical
CB2R-S285^7.39A = CB2R-S285^7.39A (Homo sapiens, UniProt P34972, S285A); assay: [35S]GTPγS assay, CB2R S285A mutant; conditions: S2857.39A, individual replicates
CB2R WT = CB2R WT (Homo sapiens, UniProt P34972); assay: [35S]GTPγS G protein activation assay, CB2R WT
CB2R-H95^2.65A = CB2R-H95^2.65A (Homo sapiens, UniProt P34972, H95A); assay: [35S]GTPγS assay, CB2R H95A mutant; conditions: H952.65A, individual replicates
[1] = log [ligand] (M) -5, individual replicates
[2] = log [ligand] (M) -6, individual replicates
[3] = log [ligand] (M) -7, individual replicates
[4] = log [ligand] (M) -8, individual replicates
[5] = log [ligand] (M) -9, individual replicates
[6] = log [ligand] (M) -10, individual replicates

Row | SMILES | [35S]GTPγS binding (CB2R-S285^7.39A; log [ligand] (M) -5) | [35S]GTPγS binding (CB2R-S285^7.39A; log [ligand] (M) -6) | [35S]GTPγS binding (CB2R-S285^7.39A; log [ligand] (M) -7) | [35S]GTPγS binding (CB2R-S285^7.39A; log [ligand] (M) -8) | [35S]GTPγS binding (CB2R-S285^7.39A; log [ligand] (M) -9) | [35S]GTPγS binding (CB2R-S285^7.39A; log [ligand] (M) -10) | [35S]GTPγS binding (CB2R WT; [1]) | [35S]GTPγS binding (CB2R WT; [2]) | [35S]GTPγS binding (CB2R WT; [3]) | [35S]GTPγS binding (CB2R WT; [4]) | [35S]GTPγS binding (CB2R WT; [5]) | [35S]GTPγS binding (CB2R WT; [6]) | [35S]GTPγS binding (CB2R-H95^2.65A; log [ligand] (M) -5) | [35S]GTPγS binding (CB2R-H95^2.65A; log [ligand] (M) -6) | [35S]GTPγS binding (CB2R-H95^2.65A; log [ligand] (M) -7) | [35S]GTPγS binding (CB2R-H95^2.65A; log [ligand] (M) -8) | [35S]GTPγS binding (CB2R-H95^2.65A; log [ligand] (M) -9) | [35S]GTPγS binding (CB2R-H95^2.65A; log [ligand] (M) -10)
1 | CCCCCCC(C)(C)c1cc(OC)c([C@@H]2C=C(CO)[C@@H]3C[C@H]2C3(C)C)c(OC)c1 [HU308] | 57.49 percentage of WT and 99.30 percentage of WT and 37.20 percentage of WT | 24.02 percentage of WT and 49.70 percentage of WT and 10.20 percentage of WT | 4.80 percentage of WT and 21.40 percentage of WT and 7.30 percentage of WT | 9.70 percentage of WT and 18.40 percentage of WT and -21.50 percentage of WT | -6.66 percentage of WT and 7.70 percentage of WT and -20.10 percentage of WT | -1.09 percentage of WT and -1.80 percentage of WT and -13.50 percentage of WT | 96.97 percentage of WT and 103.73 percentage of WT and 107.70 percentage of WT and 98.66 percentage of WT and 128.60 percentage of WT and 99.50 percentage of WT and 113.08 percentage of WT and 99.28 percentage of WT and 98.69 percentage of WT and 100.80 percentage of WT | 95.84 percentage of WT and 64.21 percentage of WT and 97.52 percentage of WT and 59.42 percentage of WT and 65.00 percentage of WT and 85.80 percentage of WT and 76.92 percentage of WT and 100.47 percentage of WT and 94.26 percentage of WT and 88.94 percentage of WT | 66.45 percentage of WT and 33.08 percentage of WT and 87.57 percentage of WT and 28.56 percentage of WT and 90.60 percentage of WT and 37.80 percentage of WT and 49.46 percentage of WT and 57.48 percentage of WT and 59.67 percentage of WT and 47.80 percentage of WT | 9.42 percentage of WT and 30.54 percentage of WT and 55.90 percentage of WT and 9.76 percentage of WT and 40.10 percentage of WT and 6.20 percentage of WT and 20.26 percentage of WT and 34.41 percentage of WT and 17.62 percentage of WT and 23.72 percentage of WT | -2.14 percentage of WT and -19.02 percentage of WT and 16.94 percentage of WT and -14.29 percentage of WT and -15.70 percentage of WT and -6.90 percentage of WT and -22.82 percentage of WT and -1.37 percentage of WT and 14.28 percentage of WT and 7.88 percentage of WT | 12.69 percentage of WT and 0.12 percentage of WT and -18.99 percentage of WT and 12.94 percentage of WT and 1.90 percentage of WT and -10.30 percentage of WT and -18.00 percentage of WT and 0.09 percentage of WT and 9.81 percentage of WT and 3.21 percentage of WT | 39.67 percentage of WT and 95.40 percentage of WT and 66.90 percentage of WT | 25.43 percentage of WT and 64.30 percentage of WT and 39.60 percentage of WT | 16.36 percentage of WT and 18.60 percentage of WT and 22.20 percentage of WT | 20.18 percentage of WT and 16.90 percentage of WT and 8.00 percentage of WT | -0.48 percentage of WT and 5.30 percentage of WT and 13.20 percentage of WT | 11.53 percentage of WT and 13.50 percentage of WT and 28.40 percentage of WT
2 | CC(C)(C)[C@@H](CO)NC(=O)c1nn(-c2c[n+]([O-])ccn2)c2c1C[C@@H]1C[C@H]21 [APD371] | 45.61 percentage of WT and 60.50 percentage of WT and 40.60 percentage of WT | 40.03 percentage of WT and 54.20 percentage of WT and 21.00 percentage of WT | 21.02 percentage of WT and 18.80 percentage of WT and 5.80 percentage of WT | -0.69 percentage of WT and -5.50 percentage of WT and -1.50 percentage of WT | 2.38 percentage of WT and 4.40 percentage of WT and -1.70 percentage of WT | -4.26 percentage of WT and -10.70 percentage of WT and -3.40 percentage of WT | 112.85 percentage of WT and 96.11 percentage of WT and 105.97 percentage of WT and 104.55 percentage of WT and 108.60 percentage of WT and 118.20 percentage of WT and 121.51 percentage of WT and 97.04 percentage of WT and 112.64 percentage of WT and 109.39 percentage of WT | 101.65 percentage of WT and 108.05 percentage of WT and 103.76 percentage of WT and 85.64 percentage of WT and 90.30 percentage of WT and 90.60 percentage of WT and 85.69 percentage of WT and 110.33 percentage of WT and 98.28 percentage of WT and 90.42 percentage of WT | 65.22 percentage of WT and 83.81 percentage of WT and 71.51 percentage of WT and 50.32 percentage of WT and 60.90 percentage of WT and 88.20 percentage of WT and 84.57 percentage of WT and 83.61 percentage of WT and 70.16 percentage of WT and 80.76 percentage of WT | 50.98 percentage of WT and 55.36 percentage of WT and 52.62 percentage of WT and 28.70 percentage of WT and 27.80 percentage of WT and 75.70 percentage of WT and 65.42 percentage of WT and 58.27 percentage of WT and 49.03 percentage of WT and 40.50 percentage of WT | -12.56 percentage of WT and -13.21 percentage of WT and 19.42 percentage of WT and -3.17 percentage of WT and -11.40 percentage of WT and 29.40 percentage of WT and 20.93 percentage of WT and 28.40 percentage of WT and 21.84 percentage of WT and 14.36 percentage of WT | -15.70 percentage of WT and -30.32 percentage of WT and 18.97 percentage of WT and 10.28 percentage of WT and -13.90 percentage of WT and 6.00 percentage of WT and 15.58 percentage of WT and 18.42 percentage of WT and -0.62 percentage of WT and 14.36 percentage of WT | 52.03 percentage of WT and 47.30 percentage of WT and 50.30 percentage of WT | 26.16 percentage of WT and 2.30 percentage of WT and 33.20 percentage of WT | 21.06 percentage of WT and -6.80 percentage of WT and 5.10 percentage of WT | 8.77 percentage of WT and -23.50 percentage of WT and 12.90 percentage of WT | 11.56 percentage of WT and -13.30 percentage of WT and 10.80 percentage of WT | 12.25 percentage of WT and -25.60 percentage of WT and 11.00 percentage of WT
3 | CC(C)CN1C(=O)CN(Cc2ccc(-c3ccc(F)c(CNC4CCOCC4)n3)cc2)C1=O [LEI-102, 1-(4-(5-fluoro-6-(((tetrahydro-2H-pyran-4-yl)amino)methyl)pyridin-2-yl)benzyl)-3-isobutylimidazolidine-2,4-dione] | 58.41 percentage of WT and 46.90 percentage of WT and 30.50 percentage of WT | 32.73 percentage of WT and 21.70 percentage of WT and 7.90 percentage of WT | 27.58 percentage of WT and -13.70 percentage of WT and -12.80 percentage of WT | 9.47 percentage of WT and -18.20 percentage of WT and -26.20 percentage of WT | 0.11 percentage of WT and -19.50 percentage of WT and -21.70 percentage of WT | 7.40 percentage of WT and -15.80 percentage of WT and -17.70 percentage of WT | 82.84 percentage of WT and 105.72 percentage of WT and 105.18 percentage of WT and 93.74 percentage of WT and 96.80 percentage of WT and 97.90 percentage of WT and 114.64 percentage of WT and 111.07 percentage of WT and 117.28 percentage of WT and 102.43 percentage of WT | 114.91 percentage of WT and 83.97 percentage of WT and 63.14 percentage of WT and 57.64 percentage of WT and 73.00 percentage of WT and 72.80 percentage of WT and 84.18 percentage of WT and 76.76 percentage of WT and 76.66 percentage of WT and 89.94 percentage of WT | 51.21 percentage of WT and 69.14 percentage of WT and 40.40 percentage of WT and 9.86 percentage of WT and 25.50 percentage of WT and 17.20 percentage of WT and 73.59 percentage of WT and 49.19 percentage of WT and 85.43 percentage of WT and 66.41 percentage of WT | 29.05 percentage of WT and -0.75 percentage of WT and 6.78 percentage of WT and 8.81 percentage of WT and 13.30 percentage of WT and 9.90 percentage of WT and 32.54 percentage of WT and 34.61 percentage of WT and 37.02 percentage of WT and 0.45 percentage of WT | -3.55 percentage of WT and 7.29 percentage of WT and 0.91 percentage of WT and -15.68 percentage of WT and -11.00 percentage of WT and -14.10 percentage of WT and -2.35 percentage of WT and -0.95 percentage of WT and 21.78 percentage of WT and -35.12 percentage of WT | 32.17 percentage of WT and -8.80 percentage of WT and 5.80 percentage of WT and -5.61 percentage of WT and 24.70 percentage of WT and -24.60 percentage of WT and 0.52 percentage of WT and 0.75 percentage of WT and 35.26 percentage of WT and -26.23 percentage of WT | 62.55 percentage of WT and 75.60 percentage of WT and 53.20 percentage of WT | 29.15 percentage of WT and -6.90 percentage of WT and 42.60 percentage of WT | 28.77 percentage of WT and -14.00 percentage of WT and 28.10 percentage of WT | 22.35 percentage of WT and -8.30 percentage of WT and -9.70 percentage of WT | 20.38 percentage of WT and -3.00 percentage of WT and 16.20 percentage of WT | 32.52 percentage of WT and 2.50 percentage of WT and 16.10 percentage of WT
